According to article PMC7933818:
These are yes or no findings as the source states them, for the method shown. In cells and extracts the contact can be indirect. Some results given as binding are weak or reduced against the parent protein; the word gives no strength.

Amino acid sequences for entries named in this document (tags omitted).
UniProt Q12905: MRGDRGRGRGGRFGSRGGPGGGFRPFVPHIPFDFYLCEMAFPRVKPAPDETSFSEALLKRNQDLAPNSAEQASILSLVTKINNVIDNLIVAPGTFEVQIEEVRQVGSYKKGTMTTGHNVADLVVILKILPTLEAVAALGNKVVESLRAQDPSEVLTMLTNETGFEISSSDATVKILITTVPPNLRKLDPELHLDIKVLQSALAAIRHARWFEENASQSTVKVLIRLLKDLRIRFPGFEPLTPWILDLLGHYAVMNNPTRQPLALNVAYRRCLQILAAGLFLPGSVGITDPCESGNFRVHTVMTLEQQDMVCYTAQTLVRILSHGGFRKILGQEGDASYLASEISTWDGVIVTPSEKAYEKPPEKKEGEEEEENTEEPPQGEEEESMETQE

Biological target: NF45 (Jurkat) (human (endogenous in Jurkat)) (UniProt Q12905)
Assay: co-IP; Jurkat cells treated with PMA/ionomycin (P/I); RIPA lysate with nuclease, sonicated; antibody and protein A/G agarose overnight at 4°C; washed three times with TBST; Western blot

B1: NFATc1 (protein, UniProt O95644 1-943)
chain: MPSTSFPVPSKFPLGPAAAVFGRGETLGPAPRAGGTMKSAEEEHYGYASSNVSPALPLPTAHSTLPAPCHNLQTSTPGIIPPADHPSGYGAALDGGPAGYFLSSGHTRPDGAPALESPRIEITSCLGLYHNNNQFFHDVEVEDVLPSSKRSPSTATLSLPSLEAYRDPSCLSPASSLSSRSCNSEASSYESNYSYPYASPQTSPWQSPCVSPKTTDPEEGFPRGLGACTLLGSPRHSPSTSPRASVTEESWLGARSSRPASPCNKRKYSLNGRQPPYSPHHSPTPSPHGSPRVSVTDDSWLGNTTQYTSSAIVAAINALTTDSSLDLGDGVPVKSRKTTLEQPPSVALKVEPVGEDLGSPPPPADFAPEDYSSFQHIRKGGFCDQYLAVPQHPYQWAKPKPLSPTSYMSPTLPALDWQLPSHSGPYELRIEVQPKSHHRAHYETEGSRGAVKASAGGHPIVQLHGYLENEPLMLQLFIGTADDRLLRPHAFYQVHRITGKTVSTTSHEAILSNTKVLEIPLLPENSMRAVIDCAGILKLRNSDIELRKGETDIGRKNTRVRLVFRVHVPQPSGRTLSLQVASNPIECSQRSAQELPLVEKQSTDSYPVVGGKKMVLSGHNFLQDSKVIFVEKAPDGHHVWEMEAKTDRDLCKPNSLVVEIPPFRNQRITSPVHVSFYVCNGKRKRSQYQRFTYLPANVPIIKTEPTDDYEPAPTCGPVSQGLSPLPRPYYSQQLAMPPDPSSCLVAGFPPCPQRSTLMPAAPGVSPKLHDLSPAAYTKGVASPGHCHLGLPQPAGEAPAVQDVPRPVATHPGSPGQPPPALLPQQVSAPPSSSCPPGLEHSLCPSSPSPPLPPATQEPTCLQPCSPACPPATGRPQHLPSTVRRDESPTAGPRLLPEVHEDGSPNLAPIPVTVKREPEELDQLYLDDVNEIIRNDLSSTSTHS
binding: binds
